# Results from the supplement of paper PMC4604168 (melanoma cell lines).
# Some of the results follow. Many values rest on one well or one pass, so single values are uncertain.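 Cells were imaged in 1,536-well plates, and nuclei stained with an antibody against cleaved PARP were counted against all DNA-stained nuclei to give the apoptosis fraction. Screening doses were chosen to leave most cells alive, and resting and induced cleaved-PARP levels differ strongly between cell lines.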
# How the values were obtained:
# Assay in all cases: cleaved PARP positive nuclei fraction relative to DMSO control; melanoma cells; higher = more apoptosis
# Conditions in all cases: library dose: low library concentration; 72 h
# [1] = system: WM115
# [2] = system: WM1716
# [3] = system: WM1745
# [4] = system: WM3526
# [5] = system: WM3619
# [6] = system: WM451Lu
structure (smiles),measurement,setting,value
"C/C(O)=C(\C#N)C(=O)Nc1cc(Br)ccc1Br + CCCCCCCCCCCC1=C(O)C(=O)C=C(O)C1=O [Embelin] (first compound 2 µM, partner dose 1.2 µM)",cleaved PARP positive nuclei fraction,[1],144%
same,cleaved PARP positive nuclei fraction,[2],54%
same,cleaved PARP positive nuclei fraction,[3],106%
same,cleaved PARP positive nuclei fraction,[4],250%
same,cleaved PARP positive nuclei fraction,[5],87.1%
same,cleaved PARP positive nuclei fraction,[6],60.3%
"Cn1cc(C2=C(c3cn(C4CCN(Cc5ccccn5)CC4)c4ccccc34)C(=O)NC2=O)c2ccccc21 [Enzastaurin] + Cn1c(Nc2ccc(C(F)(F)F)cc2)nc2cc(Oc3ccnc(-c4ncc(C(F)(F)F)[nH]4)c3)ccc21 [CHIR265] (first compound 0.8 µM, partner dose 0.08 µM)",cleaved PARP positive nuclei fraction,[1],243%
same,cleaved PARP positive nuclei fraction,[2],65.1%
same,cleaved PARP positive nuclei fraction,[3],137%
same,cleaved PARP positive nuclei fraction,[4],56.8%
same,cleaved PARP positive nuclei fraction,[5],115%
same,cleaved PARP positive nuclei fraction,[6],79.2%
"C[As](C)SC[C@H](NC(=O)CC[C@H](N)C(=O)O)C(=O)NCC(=O)O [Darinaparsin] + CC(C)(C)c1cnc(CSc2cnc(NC(=O)C3CCNCC3)s2)o1 [SNS-032] (first compound 0.4 µM, partner dose 0.01 µM)",cleaved PARP positive nuclei fraction,[1],75.7%
same,cleaved PARP positive nuclei fraction,[2],185%
same,cleaved PARP positive nuclei fraction,[3],110%
same,cleaved PARP positive nuclei fraction,[4],66.1%
same,cleaved PARP positive nuclei fraction,[5],105%
same,cleaved PARP positive nuclei fraction,[6],322%
"C[C@]12O[C@H](C[C@]1(O)CO)n1c3ccccc3c3c4c(c5c6ccccc6n2c5c31)CNC4=O [Lestaurtinib] + CC(=O)O[C@@]12CO[C@@H]1C[C@H](O)[C@@]1(C)C(=O)[C@H](O)C3=C(C)[C@@H](OC(=O)[C@H](O)[C@@H](NC(=O)OC(C)(C)C)c4ccccc4)C[C@@](O)([C@@H](OC(=O)c4ccccc4)[C@H]21)C3(C)C [Docetaxel] (first compound 0.004 µM, partner dose 0.0001 µM)",cleaved PARP positive nuclei fraction,[1],151%
same,cleaved PARP positive nuclei fraction,[2],497%
same,cleaved PARP positive nuclei fraction,[3],141%
same,cleaved PARP positive nuclei fraction,[4],148%
same,cleaved PARP positive nuclei fraction,[5],130%
same,cleaved PARP positive nuclei fraction,[6],85%
"CS(=O)(=O)c1ccc(C(=O)Nc2ccc(Cl)c(-c3ccccn3)c2)c(Cl)c1 [vismodegib] + C[As](C)SC[C@H](NC(=O)CC[C@H](N)C(=O)O)C(=O)NCC(=O)O [Darinaparsin] (first compound 1 µM, partner dose 0.4 µM)",cleaved PARP positive nuclei fraction,[1],23.4%
same,cleaved PARP positive nuclei fraction,[2],30.2%
same,cleaved PARP positive nuclei fraction,[3],78.1%
same,cleaved PARP positive nuclei fraction,[4],32.9%
same,cleaved PARP positive nuclei fraction,[5],84.1%
same,cleaved PARP positive nuclei fraction,[6],61.3%
"O=c1[nH]nc(Sc2ncc([N+](=O)[O-])s2)n1-c1ccc2c(c1)OCCO2 + Cc1cc(SCc2sc(-c3ccc(C(F)(F)F)c(F)c3)nc2C)ccc1OCC(=O)O [GW0742] (first compound 0.2 µM, partner dose 2 µM)",cleaved PARP positive nuclei fraction,[1],129%
same,cleaved PARP positive nuclei fraction,[2],45.8%
same,cleaved PARP positive nuclei fraction,[3],79.6%
same,cleaved PARP positive nuclei fraction,[4],192%
same,cleaved PARP positive nuclei fraction,[5],9.26%
same,cleaved PARP positive nuclei fraction,[6],61.6%
"C[C@@H](N)c1ccc(C(=O)Nc2ccnc3[nH]ccc23)cc1 + C[As](C)SC[C@H](NC(=O)CC[C@H](N)C(=O)O)C(=O)NCC(=O)O [Darinaparsin] (first compound 0.4 µM, partner dose 0.4 µM)",cleaved PARP positive nuclei fraction,[1],94.3%
same,cleaved PARP positive nuclei fraction,[2],108%
same,cleaved PARP positive nuclei fraction,[3],117%
same,cleaved PARP positive nuclei fraction,[4],35%
same,cleaved PARP positive nuclei fraction,[5],78.3%
same,cleaved PARP positive nuclei fraction,[6],144%
"NCC(=O)Nc1ccc(-n2nc(C(F)(F)F)cc2-c2ccc3c(ccc4ccccc43)c2)cc1 + Cc1cc(SCc2sc(-c3ccc(C(F)(F)F)c(F)c3)nc2C)ccc1OCC(=O)O [GW0742] (first compound 1 µM, partner dose 2 µM)",cleaved PARP positive nuclei fraction,[1],141%
same,cleaved PARP positive nuclei fraction,[2],200%
same,cleaved PARP positive nuclei fraction,[3],180%
same,cleaved PARP positive nuclei fraction,[4],144%
same,cleaved PARP positive nuclei fraction,[5],86%
same,cleaved PARP positive nuclei fraction,[6],202%
"O=c1[nH]nc(Sc2ncc([N+](=O)[O-])s2)n1-c1ccc2c(c1)OCCO2 + C/C(O)=C(\C#N)C(=O)Nc1cc(Br)ccc1Br [LFM-A13] (first compound 0.2 µM, partner dose 2 µM)",cleaved PARP positive nuclei fraction,[1],72.4%
same,cleaved PARP positive nuclei fraction,[2],204%
same,cleaved PARP positive nuclei fraction,[3],84.4%
same,cleaved PARP positive nuclei fraction,[4],75.2%
same,cleaved PARP positive nuclei fraction,[5],95%
same,cleaved PARP positive nuclei fraction,[6],89.9%
"Cc1ccc(NC(=O)c2cccc(N(C)C)c2)cc1NC(=O)c1ccc(O)cc1 + Cc1cc(SCc2sc(-c3ccc(C(F)(F)F)c(F)c3)nc2C)ccc1OCC(=O)O [GW0742] (first compound 2 µM, partner dose 2 µM)",cleaved PARP positive nuclei fraction,[1],121%
same,cleaved PARP positive nuclei fraction,[2],51.1%
same,cleaved PARP positive nuclei fraction,[3],117%
same,cleaved PARP positive nuclei fraction,[4],68%
same,cleaved PARP positive nuclei fraction,[5],88.2%
same,cleaved PARP positive nuclei fraction,[6],197%
"C[C@]12O[C@H](C[C@]1(O)CO)n1c3ccccc3c3c4c(c5c6ccccc6n2c5c31)CNC4=O [Lestaurtinib] + Cn1c(=O)n(-c2ccc(C(C)(C)C#N)cc2)c2c3cc(-c4cnc5ccccc5c4)ccc3ncc21 [NVP-BEZ235] (first compound 0.004 µM, partner dose 0.004 µM)",cleaved PARP positive nuclei fraction,[1],104%
same,cleaved PARP positive nuclei fraction,[2],98.1%
same,cleaved PARP positive nuclei fraction,[3],105%
same,cleaved PARP positive nuclei fraction,[4],198%
same,cleaved PARP positive nuclei fraction,[5],102%
same,cleaved PARP positive nuclei fraction,[6],126%
"CCc1ccc(CCOc2ccc(CC3SC(=O)NC3=O)cc2)nc1 (centres undefined) [pioglitazone] + O=C(Oc1ccc([N+](=O)[O-])cc1)N1CCC(C(O)(c2ccc3c(c2)OCO3)c2ccc3c(c2)OCO3)CC1 [JZL184] (first compound 2 µM, partner dose 1 µM)",cleaved PARP positive nuclei fraction,[1],199%
same,cleaved PARP positive nuclei fraction,[2],244%
same,cleaved PARP positive nuclei fraction,[3],111%
same,cleaved PARP positive nuclei fraction,[4],84.4%
same,cleaved PARP positive nuclei fraction,[5],97.1%
same,cleaved PARP positive nuclei fraction,[6],76.3%
"N.N.[Cl][Pt][Cl] [cisplatin] + O=C(CCCCCCC(=O)Nc1ccccc1)NO [vorinostat] (first compound 1.6 µM, partner dose 0.08 µM)",cleaved PARP positive nuclei fraction,[1],174%
same,cleaved PARP positive nuclei fraction,[2],138%
same,cleaved PARP positive nuclei fraction,[3],111%
same,cleaved PARP positive nuclei fraction,[4],109%
same,cleaved PARP positive nuclei fraction,[5],90.9%
same,cleaved PARP positive nuclei fraction,[6],87.4%
"Nc1nc(F)nc2c1ncn2[C@@H]1O[C@H](CO)[C@@H](O)[C@@H]1O [fludarabine] + Cc1cc(SCc2sc(-c3ccc(C(F)(F)F)c(F)c3)nc2C)ccc1OCC(=O)O [GW0742] (first compound 0.2 µM, partner dose 2 µM)",cleaved PARP positive nuclei fraction,[1],110%
same,cleaved PARP positive nuclei fraction,[2],104%
same,cleaved PARP positive nuclei fraction,[3],83.5%
same,cleaved PARP positive nuclei fraction,[4],319%
same,cleaved PARP positive nuclei fraction,[5],90.9%
same,cleaved PARP positive nuclei fraction,[6],391%
"COc1ccc(C2=N[C@@H](c3ccc(Cl)cc3)[C@@H](c3ccc(Cl)cc3)N2C(=O)N2CCNC(=O)C2)c(OC(C)C)c1 [Nutlin-3] + N.N.[Cl][Pt][Cl] [cisplatin] (first compound 0.1 µM, partner dose 1.6 µM)",cleaved PARP positive nuclei fraction,[1],69%
same,cleaved PARP positive nuclei fraction,[2],103%
same,cleaved PARP positive nuclei fraction,[3],91.1%
same,cleaved PARP positive nuclei fraction,[4],39.4%
same,cleaved PARP positive nuclei fraction,[5],93.3%
same,cleaved PARP positive nuclei fraction,[6],48.7%
"Cn1cc(C2=C(c3cn(C4CCN(Cc5ccccn5)CC4)c4ccccc34)C(=O)NC2=O)c2ccccc21 [Enzastaurin] + Cn1c(=O)n(-c2ccc(C(C)(C)C#N)cc2)c2c3cc(-c4cnc5ccccc5c4)ccc3ncc21 [NVP-BEZ235] (first compound 0.8 µM, partner dose 0.004 µM)",cleaved PARP positive nuclei fraction,[1],32.7%
same,cleaved PARP positive nuclei fraction,[2],53.8%
same,cleaved PARP positive nuclei fraction,[3],87.4%
same,cleaved PARP positive nuclei fraction,[4],34.4%
same,cleaved PARP positive nuclei fraction,[5],90%
same,cleaved PARP positive nuclei fraction,[6],113%
"C[C@]12O[C@H](C[C@]1(O)CO)n1c3ccccc3c3c4c(c5c6ccccc6n2c5c31)CNC4=O [Lestaurtinib] + COCC[n+]1c2c(n(Cc3cnccn3)c1C)C(=O)c1ccccc1C2=O [YM155] (first compound 0.004 µM, partner dose 0.0004 µM)",cleaved PARP positive nuclei fraction,[1],126%
same,cleaved PARP positive nuclei fraction,[2],50.6%
same,cleaved PARP positive nuclei fraction,[3],19%
same,cleaved PARP positive nuclei fraction,[4],20.9%
same,cleaved PARP positive nuclei fraction,[5],87.6%
same,cleaved PARP positive nuclei fraction,[6],56%
"C[C@]12O[C@H](C[C@]1(O)CO)n1c3ccccc3c3c4c(c5c6ccccc6n2c5c31)CNC4=O [Lestaurtinib] + Cn1nnc2c(C(N)=O)ncn2c1=O [temozolomide] (first compound 0.004 µM, partner dose 2 µM)",cleaved PARP positive nuclei fraction,[1],68.2%
same,cleaved PARP positive nuclei fraction,[2],34.6%
same,cleaved PARP positive nuclei fraction,[3],106%
same,cleaved PARP positive nuclei fraction,[4],92.3%
same,cleaved PARP positive nuclei fraction,[5],91.9%
same,cleaved PARP positive nuclei fraction,[6],230%
"NC1(c2ccc(-c3nc4ccn5c(=O)[nH]nc5c4cc3-c3ccccc3)cc2)CCC1 + C[As](C)SC[C@H](NC(=O)CC[C@H](N)C(=O)O)C(=O)NCC(=O)O [Darinaparsin] (first compound 0.4 µM, partner dose 0.4 µM)",cleaved PARP positive nuclei fraction,[1],164%
same,cleaved PARP positive nuclei fraction,[2],80.9%
same,cleaved PARP positive nuclei fraction,[3],119%
same,cleaved PARP positive nuclei fraction,[4],53%
same,cleaved PARP positive nuclei fraction,[5],179%
same,cleaved PARP positive nuclei fraction,[6],157%
"O=c1[nH]nc(Sc2ncc([N+](=O)[O-])s2)n1-c1ccc2c(c1)OCCO2 + O=C(Oc1ccc([N+](=O)[O-])cc1)N1CCC(C(O)(c2ccc3c(c2)OCO3)c2ccc3c(c2)OCO3)CC1 [JZL184] (first compound 0.2 µM, partner dose 1 µM)",cleaved PARP positive nuclei fraction,[1],244%
same,cleaved PARP positive nuclei fraction,[2],131%
same,cleaved PARP positive nuclei fraction,[3],93.7%
same,cleaved PARP positive nuclei fraction,[4],357%
same,cleaved PARP positive nuclei fraction,[5],87%
same,cleaved PARP positive nuclei fraction,[6],44.5%
"CN1CCN(c2ccc3nc(-c4c(N)c5c(F)cccc5[nH]c4=O)[nH]c3c2)CC1 [Dovitinib] + Cc1cc(SCc2sc(-c3ccc(C(F)(F)F)c(F)c3)nc2C)ccc1OCC(=O)O [GW0742] (first compound 0.1 µM, partner dose 2 µM)",cleaved PARP positive nuclei fraction,[1],47.7%
same,cleaved PARP positive nuclei fraction,[2],43.9%
same,cleaved PARP positive nuclei fraction,[3],99.4%
same,cleaved PARP positive nuclei fraction,[4],143%
same,cleaved PARP positive nuclei fraction,[5],116%
same,cleaved PARP positive nuclei fraction,[6],48.7%
"O=S(=O)(c1ccccc1)N(CC(F)(F)F)c1ccc(C(O)(C(F)(F)F)C(F)(F)F)cc1 + Cc1cc(SCc2sc(-c3ccc(C(F)(F)F)c(F)c3)nc2C)ccc1OCC(=O)O [GW0742] (first compound 1.4 µM, partner dose 2 µM)",cleaved PARP positive nuclei fraction,[1],59.5%
same,cleaved PARP positive nuclei fraction,[2],110%
same,cleaved PARP positive nuclei fraction,[3],137%
same,cleaved PARP positive nuclei fraction,[4],77.4%
same,cleaved PARP positive nuclei fraction,[5],432%
same,cleaved PARP positive nuclei fraction,[6],51.7%
"Cc1cc(Nc2cc(N3CCN(C)CC3)nc(Sc3ccc(NC(=O)C4CC4)cc3)n2)n[nH]1 [Tozasertib] + C[C@]12O[C@H](C[C@]1(O)CO)n1c3ccccc3c3c4c(c5c6ccccc6n2c5c31)CNC4=O [Lestaurtinib] (first compound 0.006 µM, partner dose 0.004 µM)",cleaved PARP positive nuclei fraction,[1],130%
same,cleaved PARP positive nuclei fraction,[2],101%
same,cleaved PARP positive nuclei fraction,[3],110%
same,cleaved PARP positive nuclei fraction,[4],55.3%
same,cleaved PARP positive nuclei fraction,[5],70%
same,cleaved PARP positive nuclei fraction,[6],112%
"Cn1c(=O)n(-c2ccc(C(C)(C)C#N)cc2)c2c3cc(-c4cnc5ccccc5c4)ccc3ncc21 + C[As](C)SC[C@H](NC(=O)CC[C@H](N)C(=O)O)C(=O)NCC(=O)O [Darinaparsin] (first compound 0.004 µM, partner dose 0.4 µM)",cleaved PARP positive nuclei fraction,[1],165%
same,cleaved PARP positive nuclei fraction,[2],91.8%
same,cleaved PARP positive nuclei fraction,[3],87.8%
same,cleaved PARP positive nuclei fraction,[4],64.5%
same,cleaved PARP positive nuclei fraction,[5],99.2%
same,cleaved PARP positive nuclei fraction,[6],58.5%
